The text below walks through data of publication PMC10300261.

Sequences of proteins named here, by UniProt entry; tags and fusion partners are left off. Residues count along the entry.
UniProt P21453: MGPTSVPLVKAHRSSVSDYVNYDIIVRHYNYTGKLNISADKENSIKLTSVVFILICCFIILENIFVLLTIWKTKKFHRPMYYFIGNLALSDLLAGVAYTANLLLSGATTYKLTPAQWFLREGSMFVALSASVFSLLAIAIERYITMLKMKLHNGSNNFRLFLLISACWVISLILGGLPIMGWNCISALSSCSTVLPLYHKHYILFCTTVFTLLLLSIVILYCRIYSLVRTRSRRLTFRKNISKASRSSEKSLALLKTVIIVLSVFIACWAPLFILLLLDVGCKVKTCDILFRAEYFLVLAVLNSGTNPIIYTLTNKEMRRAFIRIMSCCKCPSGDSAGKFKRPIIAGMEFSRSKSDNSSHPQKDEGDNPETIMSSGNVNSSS
UniProt P26641: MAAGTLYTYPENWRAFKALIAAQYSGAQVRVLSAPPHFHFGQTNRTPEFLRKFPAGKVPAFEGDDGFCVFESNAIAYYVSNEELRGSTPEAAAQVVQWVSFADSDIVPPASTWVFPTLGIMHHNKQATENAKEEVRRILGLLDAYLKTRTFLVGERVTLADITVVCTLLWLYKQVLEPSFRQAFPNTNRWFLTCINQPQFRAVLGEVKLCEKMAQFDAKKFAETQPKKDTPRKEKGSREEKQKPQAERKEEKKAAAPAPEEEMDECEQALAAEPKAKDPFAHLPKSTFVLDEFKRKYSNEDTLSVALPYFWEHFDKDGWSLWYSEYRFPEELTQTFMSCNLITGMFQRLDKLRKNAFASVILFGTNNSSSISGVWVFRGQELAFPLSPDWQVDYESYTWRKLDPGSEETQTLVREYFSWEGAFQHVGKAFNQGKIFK
UniProt P17301, residues 30-1181: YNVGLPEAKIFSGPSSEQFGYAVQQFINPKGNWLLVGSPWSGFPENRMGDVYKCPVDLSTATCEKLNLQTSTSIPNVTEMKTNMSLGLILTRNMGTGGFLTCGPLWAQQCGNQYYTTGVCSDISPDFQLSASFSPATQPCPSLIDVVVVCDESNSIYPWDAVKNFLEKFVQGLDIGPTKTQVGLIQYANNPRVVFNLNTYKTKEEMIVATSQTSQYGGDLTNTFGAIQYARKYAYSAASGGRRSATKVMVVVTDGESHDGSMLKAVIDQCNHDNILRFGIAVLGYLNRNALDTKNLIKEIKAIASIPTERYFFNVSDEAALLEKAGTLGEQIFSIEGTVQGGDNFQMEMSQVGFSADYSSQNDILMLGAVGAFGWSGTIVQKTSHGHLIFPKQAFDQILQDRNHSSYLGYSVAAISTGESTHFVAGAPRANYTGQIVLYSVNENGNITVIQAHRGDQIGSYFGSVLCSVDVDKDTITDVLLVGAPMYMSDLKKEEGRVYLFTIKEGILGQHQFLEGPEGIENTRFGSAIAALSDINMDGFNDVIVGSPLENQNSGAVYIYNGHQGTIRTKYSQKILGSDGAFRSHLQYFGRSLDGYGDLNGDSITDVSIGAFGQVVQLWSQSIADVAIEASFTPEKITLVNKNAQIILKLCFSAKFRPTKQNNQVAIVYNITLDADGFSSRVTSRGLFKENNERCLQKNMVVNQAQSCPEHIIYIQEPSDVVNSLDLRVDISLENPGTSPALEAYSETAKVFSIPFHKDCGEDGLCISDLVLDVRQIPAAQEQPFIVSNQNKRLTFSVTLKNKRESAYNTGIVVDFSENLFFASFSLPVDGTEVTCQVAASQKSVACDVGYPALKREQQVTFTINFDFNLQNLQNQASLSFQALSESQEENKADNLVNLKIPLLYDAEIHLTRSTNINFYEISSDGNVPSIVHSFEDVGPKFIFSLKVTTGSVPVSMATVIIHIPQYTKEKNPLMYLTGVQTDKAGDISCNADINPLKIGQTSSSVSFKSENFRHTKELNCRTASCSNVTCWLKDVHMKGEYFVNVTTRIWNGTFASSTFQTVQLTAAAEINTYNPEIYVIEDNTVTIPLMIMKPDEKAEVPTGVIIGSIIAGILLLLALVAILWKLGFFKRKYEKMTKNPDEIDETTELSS
UniProt P30101, residues 25-505: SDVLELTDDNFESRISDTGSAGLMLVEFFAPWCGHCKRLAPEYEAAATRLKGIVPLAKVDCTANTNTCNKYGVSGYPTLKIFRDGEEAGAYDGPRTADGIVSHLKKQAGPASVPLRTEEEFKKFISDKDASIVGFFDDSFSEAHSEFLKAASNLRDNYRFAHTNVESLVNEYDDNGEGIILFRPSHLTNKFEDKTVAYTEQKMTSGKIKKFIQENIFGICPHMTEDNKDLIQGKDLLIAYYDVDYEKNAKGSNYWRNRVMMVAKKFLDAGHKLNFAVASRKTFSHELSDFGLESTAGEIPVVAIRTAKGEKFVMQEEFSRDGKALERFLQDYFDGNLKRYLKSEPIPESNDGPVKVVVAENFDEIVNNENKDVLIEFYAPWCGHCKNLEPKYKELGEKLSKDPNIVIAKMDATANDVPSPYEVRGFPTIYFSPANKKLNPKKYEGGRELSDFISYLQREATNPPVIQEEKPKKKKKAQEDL
UniProt Q709C8: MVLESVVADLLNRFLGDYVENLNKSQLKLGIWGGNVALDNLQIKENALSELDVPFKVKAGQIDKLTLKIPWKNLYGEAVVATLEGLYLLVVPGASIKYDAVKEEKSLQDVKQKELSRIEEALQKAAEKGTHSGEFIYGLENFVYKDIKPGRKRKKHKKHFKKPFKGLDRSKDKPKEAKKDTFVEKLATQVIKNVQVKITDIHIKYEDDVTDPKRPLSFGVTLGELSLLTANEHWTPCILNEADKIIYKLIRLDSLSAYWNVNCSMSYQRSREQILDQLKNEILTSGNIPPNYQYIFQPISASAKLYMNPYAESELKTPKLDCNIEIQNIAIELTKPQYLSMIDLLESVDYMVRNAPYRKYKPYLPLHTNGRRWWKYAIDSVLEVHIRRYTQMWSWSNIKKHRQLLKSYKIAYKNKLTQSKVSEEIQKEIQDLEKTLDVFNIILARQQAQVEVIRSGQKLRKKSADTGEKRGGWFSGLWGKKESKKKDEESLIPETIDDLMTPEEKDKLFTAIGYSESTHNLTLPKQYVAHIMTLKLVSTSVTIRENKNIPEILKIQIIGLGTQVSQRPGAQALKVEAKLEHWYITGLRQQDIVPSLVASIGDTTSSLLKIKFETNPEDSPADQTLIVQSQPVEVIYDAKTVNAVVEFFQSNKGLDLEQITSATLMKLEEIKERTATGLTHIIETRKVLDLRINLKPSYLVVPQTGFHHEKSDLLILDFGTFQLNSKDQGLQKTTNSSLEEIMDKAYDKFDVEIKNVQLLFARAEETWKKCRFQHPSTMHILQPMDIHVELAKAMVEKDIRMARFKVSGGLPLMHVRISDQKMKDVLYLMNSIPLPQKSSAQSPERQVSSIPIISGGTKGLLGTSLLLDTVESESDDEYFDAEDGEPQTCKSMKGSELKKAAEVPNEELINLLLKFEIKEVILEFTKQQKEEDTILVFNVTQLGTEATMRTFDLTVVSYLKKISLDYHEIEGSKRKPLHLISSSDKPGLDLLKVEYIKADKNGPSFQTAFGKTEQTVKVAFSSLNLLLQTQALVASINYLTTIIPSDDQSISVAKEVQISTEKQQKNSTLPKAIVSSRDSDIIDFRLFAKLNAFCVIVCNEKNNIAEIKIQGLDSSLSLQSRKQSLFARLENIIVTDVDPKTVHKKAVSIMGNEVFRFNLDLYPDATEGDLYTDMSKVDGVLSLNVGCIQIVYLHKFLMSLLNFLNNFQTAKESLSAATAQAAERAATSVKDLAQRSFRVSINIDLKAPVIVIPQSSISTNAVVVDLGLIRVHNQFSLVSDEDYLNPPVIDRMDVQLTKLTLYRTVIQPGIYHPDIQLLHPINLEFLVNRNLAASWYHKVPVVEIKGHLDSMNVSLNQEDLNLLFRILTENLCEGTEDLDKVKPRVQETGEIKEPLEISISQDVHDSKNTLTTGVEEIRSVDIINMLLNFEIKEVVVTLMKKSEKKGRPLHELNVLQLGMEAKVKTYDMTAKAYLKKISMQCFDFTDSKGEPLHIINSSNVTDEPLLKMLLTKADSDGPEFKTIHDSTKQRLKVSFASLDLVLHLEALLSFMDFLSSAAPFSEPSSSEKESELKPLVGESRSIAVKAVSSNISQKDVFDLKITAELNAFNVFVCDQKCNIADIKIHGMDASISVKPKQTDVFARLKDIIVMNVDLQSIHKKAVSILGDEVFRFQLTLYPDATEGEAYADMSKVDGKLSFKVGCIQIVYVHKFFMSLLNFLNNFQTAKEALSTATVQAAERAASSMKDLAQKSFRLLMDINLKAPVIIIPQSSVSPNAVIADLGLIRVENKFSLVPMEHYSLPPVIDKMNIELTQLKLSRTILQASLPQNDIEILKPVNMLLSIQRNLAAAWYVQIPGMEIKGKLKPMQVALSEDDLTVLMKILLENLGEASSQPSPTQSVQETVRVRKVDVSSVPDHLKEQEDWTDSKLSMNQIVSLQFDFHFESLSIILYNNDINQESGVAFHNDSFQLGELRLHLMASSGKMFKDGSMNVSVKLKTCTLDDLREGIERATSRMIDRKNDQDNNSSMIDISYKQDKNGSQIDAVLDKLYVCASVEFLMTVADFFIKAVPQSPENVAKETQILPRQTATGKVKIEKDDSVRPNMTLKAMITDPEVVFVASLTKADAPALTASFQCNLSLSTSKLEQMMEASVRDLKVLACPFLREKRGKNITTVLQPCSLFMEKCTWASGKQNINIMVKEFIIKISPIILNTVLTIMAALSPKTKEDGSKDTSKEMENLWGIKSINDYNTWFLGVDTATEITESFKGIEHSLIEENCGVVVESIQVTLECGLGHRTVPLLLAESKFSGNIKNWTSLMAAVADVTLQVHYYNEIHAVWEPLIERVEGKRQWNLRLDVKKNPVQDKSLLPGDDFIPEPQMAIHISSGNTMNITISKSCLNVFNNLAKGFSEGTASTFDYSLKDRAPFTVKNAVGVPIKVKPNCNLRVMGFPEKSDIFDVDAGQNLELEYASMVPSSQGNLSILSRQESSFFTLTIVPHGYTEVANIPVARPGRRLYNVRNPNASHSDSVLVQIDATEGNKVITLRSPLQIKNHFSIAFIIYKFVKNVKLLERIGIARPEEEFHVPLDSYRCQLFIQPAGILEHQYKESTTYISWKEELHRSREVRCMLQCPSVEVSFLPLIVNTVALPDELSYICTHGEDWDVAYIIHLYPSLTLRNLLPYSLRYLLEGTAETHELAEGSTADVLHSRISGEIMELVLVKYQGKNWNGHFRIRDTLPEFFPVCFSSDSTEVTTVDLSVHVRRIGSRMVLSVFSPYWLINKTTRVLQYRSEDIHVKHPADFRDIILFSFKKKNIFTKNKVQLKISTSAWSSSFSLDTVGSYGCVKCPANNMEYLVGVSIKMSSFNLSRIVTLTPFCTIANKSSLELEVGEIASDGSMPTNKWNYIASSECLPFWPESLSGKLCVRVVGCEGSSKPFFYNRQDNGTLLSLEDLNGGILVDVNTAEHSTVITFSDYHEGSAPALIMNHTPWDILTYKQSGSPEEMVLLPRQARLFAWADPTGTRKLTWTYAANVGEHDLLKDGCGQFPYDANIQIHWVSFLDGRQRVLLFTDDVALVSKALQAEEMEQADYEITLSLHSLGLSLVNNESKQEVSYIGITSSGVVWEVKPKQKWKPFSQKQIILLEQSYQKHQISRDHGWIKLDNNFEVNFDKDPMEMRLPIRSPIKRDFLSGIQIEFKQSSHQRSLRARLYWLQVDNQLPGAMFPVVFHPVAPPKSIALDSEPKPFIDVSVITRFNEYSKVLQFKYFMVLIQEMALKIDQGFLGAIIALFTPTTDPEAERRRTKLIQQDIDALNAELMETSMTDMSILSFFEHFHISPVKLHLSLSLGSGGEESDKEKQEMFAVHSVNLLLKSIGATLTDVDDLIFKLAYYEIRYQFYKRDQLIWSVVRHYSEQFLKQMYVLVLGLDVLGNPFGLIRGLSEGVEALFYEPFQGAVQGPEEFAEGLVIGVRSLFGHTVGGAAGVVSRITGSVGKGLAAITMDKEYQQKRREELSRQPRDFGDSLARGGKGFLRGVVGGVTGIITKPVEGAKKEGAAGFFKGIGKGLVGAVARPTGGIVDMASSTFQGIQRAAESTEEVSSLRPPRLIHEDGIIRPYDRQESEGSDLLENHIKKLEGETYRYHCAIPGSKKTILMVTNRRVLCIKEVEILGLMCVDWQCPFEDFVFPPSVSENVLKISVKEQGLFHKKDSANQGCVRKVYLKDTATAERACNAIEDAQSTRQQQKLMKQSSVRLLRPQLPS

The labels stand for the following.
B1: Septin-2 (protein, UniProt Q15019 1-361)
chain: MSKQQPTQFINPETPGYVGFANLPNQVHRKSVKKGFEFTLMVVGESGLGKSTLINSLFLTDLYPERVIPGAAEKIERTVQIEASTVEIEERGVKLRLTVVDTPGYGDAINCRDCFKTIISYIDEQFERYLHDESGLNRRHIIDNRVHCCFYFISPFGHGLKPLDVAFMKAIHNKVNIVPVIAKADTLTLKERERLKKRILDEIEEHNIKIYHLPDAESDEDEDFKEQTRLLKASIPFSVVGSNQLIEAKGKKVRGRLYPWGVVEVENPEHNDFLKLRTMLITHMQDLQEVTQDLHYENFRSERLKRGGRKVENEDMNKDQILLEKEAELRRMQEMIARMQAQMQMQMQGGDGDGGALGHHV
B2: Ras GTPase-activating protein-binding protein 2 (protein, UniProt Q9UN86 1-482)
chain: MVMEKPSPLLVGREFVRQYYTLLNKAPEYLHRFYGRNSSYVHGGVDASGKPQEAVYGQNDIHHKVLSLNFSECHTKIRHVDAHATLSDGVVVQVMGLLSNSGQPERKFMQTFVLAPEGSVPNKFYVHNDMFRYEDEVFGDSEPELDEESEDEVEEEQEERQPSPEPVQENANSGYYEAHPVTNGIEEPLEESSHEPEPEPESETKTEELKPQVEEKNLEELEEKSTTPPPAEPVSLPQEPPKAFSWASVTSKNLPPSGTVSSSGIPPHVKAPVSQPRVEAKPEVQSQPPRVREQRPRERPGFPPRGPRPGRGDMEQNDSDNRRIIRYPDSHQLFVGNLPHDIDENELKEFFMSFGNVVELRINTKGVGGKLPNFGFVVFDDSEPVQRILIAKPIMFRGEVRLNVEEKKTRAARERETRGGGDDRRDIRRNDRGPGGPRGIVGGGMMRDRDGRGPPPRGGMAQKLGSGRGTGQMEGRFTGQRR
B3: RhoGEF and PH domain-containing protein 5 (protein, UniProt Q6ZNL6 1-1462)
chain: MFRGPKPPIAPKPRLTAPNEWRASVYLNDSLNKCSNGRLPCVDRGLDEGPRSIPKCSESETDEDYIVVPRVPLREDEPKDEGSVGNKALVSPESSAEEEEEREEGGEACGLEGTGAGEDSVAPAAPGAGALSREGEEGTDLALEDEGEGCADEPGTLEQVSRSEEEEKLVQPHRECSLEDSGPWAGEGVFQSDLLLPHIHGEDQEPPDTPGEAEEDDEEGCASTDPAGADEGSGPDRPTEDMGQDAEDTSEEPPEKEELAGVQEAETATDCPEVLEEGCEEATGVTGGEQVDLSEPPDHEKKTNQEVAAATLEDHAQDESAEESCQIVPFENDCMEDFVTSLTGSPYEFFPTESTSFCSESCSPLSESAKGLESEQAPKLGLRAEENPMVGALCGQCGSLQGGAAEGPAAPDVVVVLEEEALDDALANPYVMGVGLPGQAAPGEGGQAASDALGGYGSKEELNCEAEGGLVPADRKNTSTRVRPHSGKVAGYVPETVPEETGPEAGSSAPGIGGAAEEVGKTLLSLEGKPLEASRALPAKPRAFTLYPRSFSVEGREIPVSVYQEPEGSGLDDHRIKRKEDNLSLSCVIGSSGSFSQRNHLPSSGTSTPSSMVDIPPPFDLACITKKPITKSSPSLLIESDSPDKYKKKKSSFKRFLALTFKKKTENKLHVDVNVSSSRSSSESSYHGPSRILEVDRRSLSNSPQLKSRTGKLRASESPSSLIFYRDGKRKGVPFSRTVSRVESFEDRSRPPFLPLPLTKPRSISFPSADTSDYENIPAMNSDYENIQIPPRRPARAGAFTKLFEDQSRALSTANENDGYVDMSSFNAFESKQQSADQDAESAYTEPYKVCPISSAAPKEDLTSDEEQRSSEEEDSASRDPSVTHKVEGQSRALVIAQELLSSEKAYVEMLQHLNLDFHGAVMRALDDMDHEGRDTLAREELRQGLSELPAIHDLHQGILEELEERLSNWESQQKVADVFLAREQGFDHHATHILQFDRYLGLLSENCLHSPRLAAAVREFEQSVQGGSQTAKHRLLRVVQRLFQYQVLLTDYLNNLCPDSAEYDNTQGALSLISKVTDRANDSMEQGENLQKLVHIEHSVRGQGDLLQPGREFLKEGTLMKVTGKNRRPRHLFLMNDVLLYTYPQKDGKYRLKNTLAVANMKVSRPVMEKVPYALKIETSESCLMLSASSCAERDEWYGCLSRALPEDYKAQALAAFHHSVEIRERLGVSLGERPPTLVPVTHVMMCMNCGCDFSLTLRRHHCHACGKIVCRNCSRNKYPLKYLKDRMAKVCDGCFGELKKRGRAVPGLMRERPVSMSFPLSSPRFSGSAFSSVFQSINPSTFKKQKKVPSALTEVAASGEGSAISGYLSRCKRGKRHWKKLWFVIKGKVLYTYMASEDKVALESMPLLGFTIAPEKEEGSSEVGPIFHLYHKKTLFYSFKAEDTNSAQRWIEAMEDASVL
B4: PRA1 family protein 2 (protein, UniProt O60831 1-178)
chain: MSEVRLPPLRALDDFVLGSARLAAPDPCDPQRWCHRVINNLLYYQTNYLLCFGIGLALAGYVRPLHTLLSALVVAVALGVLVWAAETRAAVRRCRRSHPAACLAAVLAVGLLVLWVAGGACTFLFSIAGPVLLILVHASLRLRNLKNKIENKIESIGLKRTPMGLLLEALGQEQEAGS

Results are given in words; binding and its absence hold for the method and conditions named. Binding seen in cells or lysates may run through a third protein. A yes stands for co-enrichment or nearness to the bait. Other partners may have been found.

The first experiment deals with S1PR1-WT-miniTurbo (sphingosine 1-phosphate receptor 1, wild type, with miniTurbo fused to the C terminus) (UniProt P21453). Nature of the experiment: proximity labelling; miniTurbo-tagged S1PR1-WT or -TM4 in HUVECs; 500 uM biotin, 3 h; biotinylated proteins purified on Tamavidin 2-REV magnetic beads; total (lysate) and biotinylated (eluate) FLNB seen by Western blot.
Regarding Filamin B (from UniProt O75369 1-2602), the binding entry was “binds”.

Another experiment shares this target. Nature of the experiment: proximity labelling; miniTurbo fused to the C terminus of S1PR1 in HUVECs; 500 uM biotin, 37 °C, 3 h; biotinylated proteins captured on Tamavidin 2-REV magnetic beads, digested on beads, shot-gun LC-MS/MS; three sets in triplicate; hits: identified only in WT samples in at least two sets.
Turning to “Elongation factor 1-gamma (from UniProt P26641 1-437)”, the binding result is reported as “binds”.

On to Filamin B (from UniProt O75369 1-2602), for which the binding entry is recorded as “binds”.

Take “Integrin alpha-2 (from UniProt P17301 30-1181)”: the binding entry is reported as “binds”.

Consider “Protein disulfide-isomerase A3 (from UniProt P30101 25-505)”, for which the binding result is reported as “binds”.

As to “Vacuolar protein sorting-associated protein 13C (from UniProt Q709C8 1-3753)”, the binding result is “binds”.

On to B1, for which the binding result is “binds”.

Regarding B2, the binding result was “binds”.

As for B3, the binding entry is given as “binds”.

As for B4, the binding result is reported as “binds”.
